The supplement of paper PMC11006884
Only a part is listed here, and it is no random draw. This is a noisy data set.

Sequences of proteins named here, by UniProt entry; tags and fusion partners are left off. A change or cut given only in a name is not applied to a line headed by its entry.
UniProt Q8TAG9: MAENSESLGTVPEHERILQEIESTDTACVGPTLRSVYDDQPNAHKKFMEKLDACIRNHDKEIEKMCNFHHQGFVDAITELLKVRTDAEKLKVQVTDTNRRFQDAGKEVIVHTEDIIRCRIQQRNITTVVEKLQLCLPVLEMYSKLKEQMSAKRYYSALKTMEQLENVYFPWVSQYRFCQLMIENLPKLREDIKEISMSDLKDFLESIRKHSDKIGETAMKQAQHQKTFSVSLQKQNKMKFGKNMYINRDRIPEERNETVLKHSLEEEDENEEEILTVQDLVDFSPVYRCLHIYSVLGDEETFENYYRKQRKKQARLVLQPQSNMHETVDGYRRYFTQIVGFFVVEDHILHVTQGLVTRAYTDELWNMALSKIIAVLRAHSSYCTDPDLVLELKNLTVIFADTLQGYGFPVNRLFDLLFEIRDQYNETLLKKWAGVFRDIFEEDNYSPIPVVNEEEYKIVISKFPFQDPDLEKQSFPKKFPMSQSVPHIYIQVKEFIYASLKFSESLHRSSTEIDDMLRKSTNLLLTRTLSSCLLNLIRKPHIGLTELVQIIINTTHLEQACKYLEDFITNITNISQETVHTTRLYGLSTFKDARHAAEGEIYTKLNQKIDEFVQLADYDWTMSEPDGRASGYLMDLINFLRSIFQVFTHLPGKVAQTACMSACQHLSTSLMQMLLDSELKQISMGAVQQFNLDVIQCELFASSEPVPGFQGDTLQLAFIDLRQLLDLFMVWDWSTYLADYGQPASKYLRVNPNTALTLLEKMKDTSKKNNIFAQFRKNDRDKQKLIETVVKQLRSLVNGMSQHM
UniProt Q8NBW4: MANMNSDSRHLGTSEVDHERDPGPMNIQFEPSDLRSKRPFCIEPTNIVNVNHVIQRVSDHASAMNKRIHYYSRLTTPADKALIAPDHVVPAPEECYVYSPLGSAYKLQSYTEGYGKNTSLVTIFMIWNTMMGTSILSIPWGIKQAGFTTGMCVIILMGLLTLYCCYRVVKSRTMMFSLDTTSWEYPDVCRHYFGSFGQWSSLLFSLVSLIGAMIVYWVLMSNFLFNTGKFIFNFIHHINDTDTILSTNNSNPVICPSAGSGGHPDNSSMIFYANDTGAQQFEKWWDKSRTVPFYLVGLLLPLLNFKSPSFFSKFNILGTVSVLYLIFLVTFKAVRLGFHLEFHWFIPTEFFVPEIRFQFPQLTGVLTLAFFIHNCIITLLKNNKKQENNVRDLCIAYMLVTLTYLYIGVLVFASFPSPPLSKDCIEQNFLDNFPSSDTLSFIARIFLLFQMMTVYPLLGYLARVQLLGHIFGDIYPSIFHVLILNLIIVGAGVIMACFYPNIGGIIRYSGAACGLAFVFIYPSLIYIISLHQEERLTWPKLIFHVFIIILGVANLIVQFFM
UniProt Q8N5C6: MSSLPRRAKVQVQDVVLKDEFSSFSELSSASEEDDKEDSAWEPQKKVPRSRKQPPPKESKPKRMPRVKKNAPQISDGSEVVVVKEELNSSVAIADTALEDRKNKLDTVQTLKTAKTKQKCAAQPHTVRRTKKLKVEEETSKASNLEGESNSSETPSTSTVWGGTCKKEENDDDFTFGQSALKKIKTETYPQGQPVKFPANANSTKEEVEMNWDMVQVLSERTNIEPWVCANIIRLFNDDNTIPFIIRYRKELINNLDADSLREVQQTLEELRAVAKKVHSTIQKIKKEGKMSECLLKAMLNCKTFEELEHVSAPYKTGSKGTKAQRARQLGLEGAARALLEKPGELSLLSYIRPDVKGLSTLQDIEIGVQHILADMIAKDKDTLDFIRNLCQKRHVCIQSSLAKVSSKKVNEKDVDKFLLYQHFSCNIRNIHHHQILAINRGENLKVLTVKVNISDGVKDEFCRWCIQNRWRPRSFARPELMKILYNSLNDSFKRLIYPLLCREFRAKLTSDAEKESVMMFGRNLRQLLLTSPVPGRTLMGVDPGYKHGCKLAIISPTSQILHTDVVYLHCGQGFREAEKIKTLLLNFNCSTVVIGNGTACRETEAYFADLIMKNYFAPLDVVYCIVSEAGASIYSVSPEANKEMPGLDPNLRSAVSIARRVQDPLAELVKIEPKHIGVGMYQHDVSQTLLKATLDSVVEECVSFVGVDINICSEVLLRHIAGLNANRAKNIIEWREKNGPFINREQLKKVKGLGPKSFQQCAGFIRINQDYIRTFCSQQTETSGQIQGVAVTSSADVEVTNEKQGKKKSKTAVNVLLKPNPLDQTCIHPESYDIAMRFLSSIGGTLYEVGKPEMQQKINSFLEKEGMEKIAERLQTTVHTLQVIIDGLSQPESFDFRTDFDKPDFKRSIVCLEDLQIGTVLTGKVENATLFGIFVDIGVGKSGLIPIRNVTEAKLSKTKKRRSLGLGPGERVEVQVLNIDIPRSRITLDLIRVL
UniProt Q8NB90: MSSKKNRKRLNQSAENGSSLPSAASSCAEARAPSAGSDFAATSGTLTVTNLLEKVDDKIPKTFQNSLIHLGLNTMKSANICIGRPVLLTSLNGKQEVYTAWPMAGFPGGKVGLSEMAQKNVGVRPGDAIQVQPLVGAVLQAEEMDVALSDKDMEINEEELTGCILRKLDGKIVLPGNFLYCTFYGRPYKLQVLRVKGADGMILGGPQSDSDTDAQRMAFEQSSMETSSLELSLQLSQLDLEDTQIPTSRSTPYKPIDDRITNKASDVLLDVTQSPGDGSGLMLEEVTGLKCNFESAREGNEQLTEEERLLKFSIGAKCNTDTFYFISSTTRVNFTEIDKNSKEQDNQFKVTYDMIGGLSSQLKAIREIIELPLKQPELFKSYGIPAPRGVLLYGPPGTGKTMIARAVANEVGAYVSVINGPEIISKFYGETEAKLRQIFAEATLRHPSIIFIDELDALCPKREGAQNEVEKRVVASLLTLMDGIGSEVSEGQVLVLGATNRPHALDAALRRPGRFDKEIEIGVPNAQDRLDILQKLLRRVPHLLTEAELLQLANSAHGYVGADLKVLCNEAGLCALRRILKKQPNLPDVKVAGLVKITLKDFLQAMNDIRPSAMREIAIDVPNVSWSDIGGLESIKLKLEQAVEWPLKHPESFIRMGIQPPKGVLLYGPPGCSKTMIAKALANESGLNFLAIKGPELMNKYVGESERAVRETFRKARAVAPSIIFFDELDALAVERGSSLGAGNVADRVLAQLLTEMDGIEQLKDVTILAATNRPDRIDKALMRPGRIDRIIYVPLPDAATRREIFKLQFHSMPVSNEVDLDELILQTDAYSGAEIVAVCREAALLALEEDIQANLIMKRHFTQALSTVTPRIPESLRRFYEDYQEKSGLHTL
UniProt Q8ND24: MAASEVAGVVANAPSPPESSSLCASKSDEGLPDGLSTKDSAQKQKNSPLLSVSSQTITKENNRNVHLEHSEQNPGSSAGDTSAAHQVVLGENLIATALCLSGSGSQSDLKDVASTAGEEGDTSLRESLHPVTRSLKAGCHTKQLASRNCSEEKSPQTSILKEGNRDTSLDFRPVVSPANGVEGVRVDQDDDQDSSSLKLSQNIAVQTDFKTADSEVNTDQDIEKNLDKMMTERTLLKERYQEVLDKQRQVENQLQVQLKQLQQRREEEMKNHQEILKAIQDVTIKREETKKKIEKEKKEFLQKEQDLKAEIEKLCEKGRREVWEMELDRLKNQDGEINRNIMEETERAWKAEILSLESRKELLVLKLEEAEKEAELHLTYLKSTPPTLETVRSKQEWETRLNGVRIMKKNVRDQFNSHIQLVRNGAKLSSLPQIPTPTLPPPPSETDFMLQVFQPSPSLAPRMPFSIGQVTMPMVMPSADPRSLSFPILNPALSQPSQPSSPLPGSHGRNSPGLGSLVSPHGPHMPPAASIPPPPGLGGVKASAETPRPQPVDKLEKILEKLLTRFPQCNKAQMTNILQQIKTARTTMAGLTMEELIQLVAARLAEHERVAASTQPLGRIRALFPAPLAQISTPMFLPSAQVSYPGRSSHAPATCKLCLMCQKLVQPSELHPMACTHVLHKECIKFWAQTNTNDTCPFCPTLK
UniProt Q8TEV9: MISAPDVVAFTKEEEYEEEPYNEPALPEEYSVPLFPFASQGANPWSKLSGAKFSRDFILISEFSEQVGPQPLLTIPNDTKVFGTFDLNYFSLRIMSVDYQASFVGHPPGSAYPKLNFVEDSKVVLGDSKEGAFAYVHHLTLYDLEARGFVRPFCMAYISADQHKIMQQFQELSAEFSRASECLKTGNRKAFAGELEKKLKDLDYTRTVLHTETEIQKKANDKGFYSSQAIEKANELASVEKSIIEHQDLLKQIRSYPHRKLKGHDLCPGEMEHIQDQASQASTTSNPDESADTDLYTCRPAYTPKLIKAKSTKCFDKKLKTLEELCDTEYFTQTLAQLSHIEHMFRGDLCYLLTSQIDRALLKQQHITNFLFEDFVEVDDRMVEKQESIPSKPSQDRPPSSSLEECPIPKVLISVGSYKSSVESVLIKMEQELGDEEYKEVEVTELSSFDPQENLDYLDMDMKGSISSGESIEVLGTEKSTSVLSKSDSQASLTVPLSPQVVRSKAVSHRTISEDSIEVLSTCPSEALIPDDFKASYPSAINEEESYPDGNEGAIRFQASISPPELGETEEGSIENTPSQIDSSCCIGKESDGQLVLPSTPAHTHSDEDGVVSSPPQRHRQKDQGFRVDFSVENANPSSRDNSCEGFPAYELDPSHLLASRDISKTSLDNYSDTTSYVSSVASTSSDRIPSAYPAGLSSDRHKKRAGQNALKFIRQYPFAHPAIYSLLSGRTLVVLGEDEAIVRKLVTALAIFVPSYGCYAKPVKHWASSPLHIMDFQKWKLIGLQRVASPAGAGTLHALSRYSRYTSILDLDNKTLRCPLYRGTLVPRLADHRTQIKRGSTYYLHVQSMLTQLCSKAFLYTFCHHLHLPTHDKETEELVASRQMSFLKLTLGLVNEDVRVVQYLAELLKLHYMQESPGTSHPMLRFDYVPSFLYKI
UniProt Q8WXE1: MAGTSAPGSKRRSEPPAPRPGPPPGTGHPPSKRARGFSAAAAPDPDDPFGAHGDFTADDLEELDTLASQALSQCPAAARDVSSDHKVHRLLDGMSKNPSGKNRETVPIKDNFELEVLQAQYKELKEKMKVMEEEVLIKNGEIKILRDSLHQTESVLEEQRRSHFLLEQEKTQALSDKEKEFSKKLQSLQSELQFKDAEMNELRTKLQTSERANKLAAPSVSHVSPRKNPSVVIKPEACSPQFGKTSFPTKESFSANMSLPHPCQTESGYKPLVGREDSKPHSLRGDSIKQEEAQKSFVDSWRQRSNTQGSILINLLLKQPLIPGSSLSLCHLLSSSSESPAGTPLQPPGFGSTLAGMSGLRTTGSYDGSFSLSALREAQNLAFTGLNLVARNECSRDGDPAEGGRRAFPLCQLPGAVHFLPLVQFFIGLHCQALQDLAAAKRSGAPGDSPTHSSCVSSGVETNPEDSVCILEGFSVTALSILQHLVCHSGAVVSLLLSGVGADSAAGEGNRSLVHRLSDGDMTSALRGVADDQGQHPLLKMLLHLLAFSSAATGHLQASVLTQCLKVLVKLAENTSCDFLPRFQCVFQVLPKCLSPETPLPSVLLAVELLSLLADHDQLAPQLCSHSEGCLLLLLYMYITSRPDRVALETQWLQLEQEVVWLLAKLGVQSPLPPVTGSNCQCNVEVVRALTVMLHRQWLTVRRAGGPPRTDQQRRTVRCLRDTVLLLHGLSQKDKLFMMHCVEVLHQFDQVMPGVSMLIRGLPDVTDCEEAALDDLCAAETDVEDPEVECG
UniProt Q8TE02: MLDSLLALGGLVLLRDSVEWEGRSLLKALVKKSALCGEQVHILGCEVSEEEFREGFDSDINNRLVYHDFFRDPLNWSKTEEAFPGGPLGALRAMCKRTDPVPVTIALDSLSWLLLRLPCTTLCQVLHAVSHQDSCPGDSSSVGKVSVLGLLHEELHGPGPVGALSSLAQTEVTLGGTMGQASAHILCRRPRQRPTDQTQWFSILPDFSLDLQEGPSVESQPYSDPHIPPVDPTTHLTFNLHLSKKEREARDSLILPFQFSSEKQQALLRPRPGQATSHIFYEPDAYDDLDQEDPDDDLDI
UniProt Q8WYH8, whole entry: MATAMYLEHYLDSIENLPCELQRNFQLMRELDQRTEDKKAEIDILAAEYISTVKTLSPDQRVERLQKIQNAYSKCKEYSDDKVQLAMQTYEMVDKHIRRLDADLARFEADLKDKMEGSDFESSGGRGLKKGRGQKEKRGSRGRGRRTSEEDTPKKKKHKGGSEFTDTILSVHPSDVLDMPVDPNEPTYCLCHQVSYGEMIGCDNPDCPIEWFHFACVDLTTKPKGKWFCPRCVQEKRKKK
UniProt Q8NBN7: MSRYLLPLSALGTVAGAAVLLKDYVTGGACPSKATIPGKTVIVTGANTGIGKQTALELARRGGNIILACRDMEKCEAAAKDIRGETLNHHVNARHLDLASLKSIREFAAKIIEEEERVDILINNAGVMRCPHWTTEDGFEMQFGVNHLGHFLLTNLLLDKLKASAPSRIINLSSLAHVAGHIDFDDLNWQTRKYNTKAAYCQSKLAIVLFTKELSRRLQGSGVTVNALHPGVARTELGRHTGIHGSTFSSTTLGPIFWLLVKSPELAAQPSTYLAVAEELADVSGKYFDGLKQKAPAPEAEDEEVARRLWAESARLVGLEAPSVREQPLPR

Compound: COC(=O)/C=C/c1ccccc1 [methyl cinnamate]
Test: log2 ratio of iodoacetamide-alkyne labeling of the cysteine site, DMSO over compound (competition); higher = stronger covalent engagement of the cysteine by the compound, active = 1 or more
Conditions: 500 µM; treatment time 1 h; system: HEK293T cell lysate
In short: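 Reporter intensities give each cysteine's log2 competition ratio as the mean of control channels over the mean of compound channels. The samples were HEK293T lysate (2 mg/mL) given vehicle or electrophile (500 µM, 1 h, ambient temperature), then iodoacetamide alkyne (1 h), followed by click coupling to sCIP-TMT reagents, pooling, trypsin digestion overnight at 37 °C, streptavidin enrichment, acid elution, Orbitrap Eclipse LC-MS/MS with FAIMS and FragPipe quantification. Duplicate channels and three replicates were run, and cysteines quantified in only one replicate were discarded.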

Target	log2 ratio of iodoacetamide-alkyne labeling
EXOC6 C135 (UniProt Q8TAG9)	inactive: 0.469
SEC14L1 C258 (UniProt Q92503)	inactive: -0.138
UniProt Q8N5Z5_C61	inactive: -0.0529
SLC38A9 C41 (UniProt Q8NBW4)	inactive: -0.326
CTNNBL1 C370 (UniProt Q8WYA6)	inactive: -0.317
SRBD1 C165 (UniProt Q8N5C6)	inactive: -0.0659
THOC2 C1064 (UniProt Q8NI27)	inactive: 0.244
PIEZO1 C383 (UniProt Q92508)	inactive: 0.0926
SPATA5 C291 (UniProt Q8NB90)	inactive: -0.13
CNNM3 C376 (UniProt Q8NE01)	inactive: 0.115
LPCAT1 C216 (UniProt Q8NF37)	inactive: -0.146
TTC5 C439 (UniProt Q8N0Z6)	inactive: -0.248
RNF214 C655 (UniProt Q8ND24)	inactive: 0.24
UniProt Q8NFC6_C686	inactive: 0.588
RNF214 C149 (UniProt Q8ND24)	inactive: 0.212
NUDCD2 C99 (UniProt Q8WVJ2)	inactive: 0.0469
WDTC1 C312 (UniProt Q8N5D0)	inactive: 0.235
SMCR8 C644 (UniProt Q8TEV9)	inactive: -0.0721
WDR19 C1332 (UniProt Q8NEZ3)	inactive: 0.317

Target	log2 ratio of iodoacetamide-alkyne labeling
UniProt Q8WVV9_C84	inactive: -0.252
SLC30A7 C308 (UniProt Q8NEW0)	inactive: 0.171
ATRIP C74 (UniProt Q8WXE1)	inactive: -0.28
UniProt Q8WVB3_C244	inactive: 0.232
EXOC6 C28 (UniProt Q8TAG9)	inactive: 0.166
DGCR8 C514 (UniProt Q8WYQ5)	inactive: 0.0968
RBM15B C128 (UniProt Q8NDT2)	inactive: 0.256
GPT2 C477 (UniProt Q8TD30)	inactive: 0.286
FLAD1 C236 (UniProt Q8NFF5)	inactive: 0.103
UniProt Q8NBU5_C359	inactive: 0.141
UniProt Q8N1I0_C1857	inactive: 0.319
SPATA5 C27 (UniProt Q8NB90)	inactive: 0.382
UniProt Q8TE02_C203	inactive: -0.67
KLHDC4 C430 (UniProt Q8TBB5)	inactive: 0.146
ZNF280C C734 (UniProt Q8ND82)	inactive: 0.252
ING5 C19 (UniProt Q8WYH8)	inactive: 0.0175
UniProt Q8WVT3_C160	inactive: -0.0614
RDH13 C30 (UniProt Q8NBN7)	inactive: 0.249

Some of the entries so far, as a markdown table.

| Target | log2 ratio of iodoacetamide-alkyne labeling |
| --- | --- |
| SRBD1 C165 (UniProt Q8N5C6) | inactive: -0.0659 |
| THOC2 C1064 (UniProt Q8NI27) | inactive: 0.244 |
| LPCAT1 C216 (UniProt Q8NF37) | inactive: -0.146 |
| RNF214 C655 (UniProt Q8ND24) | inactive: 0.24 |
| NUDCD2 C99 (UniProt Q8WVJ2) | inactive: 0.0469 |
| WDTC1 C312 (UniProt Q8N5D0) | inactive: 0.235 |
| EXOC6 C28 (UniProt Q8TAG9) | inactive: 0.166 |
| RBM15B C128 (UniProt Q8NDT2) | inactive: 0.256 |
| GPT2 C477 (UniProt Q8TD30) | inactive: 0.286 |
| SPATA5 C27 (UniProt Q8NB90) | inactive: 0.382 |
| KLHDC4 C430 (UniProt Q8TBB5) | inactive: 0.146 |
